Source: publication PMC10557143, “Promoter R-Loops Recruit U2AF1 to Modulate Its Phase Separation and RNA Splicing”
The exact form of at least one protein or probe is not confirmed. For some of these results: The comparison behind a weaker result is the experiment's own reference, which may not be listed here. Protein sequences can lack the tags named with them. For some of these results: At least one verdict was read from the data and is not stated in words by the source.

Key:
[1] = target: T1, U2AF1 (human) (UniProt Q01081); experiment: phase separation, fluorescence microscopy; conditions: recombinant protein, protein details: His6 (pET30a), label: 5' Cy3 on RNA strand
T1 sequence (looked up, limits assumed): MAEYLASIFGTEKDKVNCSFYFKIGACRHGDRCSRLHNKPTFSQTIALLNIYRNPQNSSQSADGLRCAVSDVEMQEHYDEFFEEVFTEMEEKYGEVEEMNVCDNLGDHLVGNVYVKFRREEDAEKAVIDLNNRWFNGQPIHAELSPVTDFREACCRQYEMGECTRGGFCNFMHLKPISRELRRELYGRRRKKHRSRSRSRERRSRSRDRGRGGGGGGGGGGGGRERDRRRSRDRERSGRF

[2] = target: T1, U2AF1 (human); experiment: EMSA; conditions: K+ buffer, Kd very similar to anisotropy, recombinant protein, protein details: His6 (pET30a), label: 5' TAMRA
[3] = target: T1, U2AF1 (human); experiment: fluorescence anisotropy; conditions: Anisotropy: 10 nM probe, 10 mM Tris-HCl pH 7.5, 1 mM EDTA, 100 mM KCl, 0.1 mM DTT, 10 ug/mL BSA, 30 min on ice; recombinant protein; protein details: His6 (pET30a); label: 5' Cy3 on non-templated strand
[4] = target: T2, U2AF1-ZF2 (human) (UniProt Q01081); experiment: fluorescence anisotropy; conditions: Anisotropy: 10 nM probe, 10 mM Tris-HCl pH 7.5, 1 mM EDTA, 100 mM KCl, 0.1 mM DTT, 10 ug/mL BSA, 30 min on ice; recombinant protein; protein details: His6 (pET30a); label: 5' Cy3 on RNA strand; DNA:RNA hybrid
T2 sequence (looked up, limits assumed): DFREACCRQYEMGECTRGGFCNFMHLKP

[5] = target: T3, U2AF1-ZF1 (human) (UniProt Q01081); experiment: fluorescence anisotropy; conditions: Anisotropy: 10 nM probe, 10 mM Tris-HCl pH 7.5, 1 mM EDTA, 100 mM KCl, 0.1 mM DTT, 10 ug/mL BSA, 30 min on ice; recombinant protein; protein details: His6 (pET30a); label: 5' Cy3 on RNA strand; DNA:RNA hybrid
T3 sequence (looked up, limits assumed): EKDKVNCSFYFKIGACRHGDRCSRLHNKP

## GCGAGGGGCGGCCGGAGAGC / CCGCTCCGGCAGCTCAGGCCCTGGCGCTCTCCGGCCGCCCCTCGCCCGCCCGGGCTCCTCCTCCTGTGCC / GGCACAGGAGGAGGAGTTTTTTCAGGGAGGGCGCTGGGAGGAGGGCATTTTTTGAGCTGCCGGAGCGG [cKIT G4-R-loop]
[1]; enhances droplets more than M4-R-loop
  binding result: binds

## GCGAGGGGCGGCCGGAGAGC / CCGCTCCGGCAGCTCAGGCCCTGGCGCTCTCCGGCCGCCCCTCGCCCGCCCGGGCTCCTCCTCCTGTGCC / GGCACAGGAGGAGGAGTTTTTTCAGGGAGGGCTCTGTGAGGAGGGCATTTTTTGAGCTGCCGGAGCGG [cKIT M4-R-loop]
[1]; fewer foci than G4-R-loop
  binding result: binds

## AGGGAGGGCTCTGTGAGGAGGG [cKIT_M4]
[2]; single-stranded DNA
  binding result: binds

## GCGAGGGGCGGCCGGAGAGC (double strand) [dsDNA]
[3]
  binding result: binds more weakly

## GCGAGGGGCGGCCGGAGAGC (double strand) [RNA/DNA hybrid]
[4]
  binding result: binds more weakly
[5]
  binding result: binds more weakly

## AGGGAGGGCGCTGGGAGGAGGG [cKIT_G4]
[2]; folded or branched DNA
  binding result: binds
